Results reported in PubChem BioAssay AID2685 (National Center for Advancing Translational Sciences (NCATS), 2010).
The campaign covered roughly 320,000 compounds. About 2,100 (0.66%) were called active. This list was built around the results that the source calls inconclusive (neither active nor inactive); the mix of calls is not that of the screen. Calls follow the shape of the dose curve; as a rule, active = well fitted inhibition curve with a large enough effect in the signal ratio, with a control signal flat (not every such curve was filed as active); inconclusive = small, poorly fitted or top-dose-only effect, or effect the other way, or a change in a side signal; inactive = flat fitted curve, though single readings scatter; the % refers to the signal ratio. Potencies of inconclusive entries are doubtful fits and often do not repeat.
% is scaled to controls: 0 for no effect and ±100 for the full control effect; potency is read from the fitted curve at half-maximal effect.

Test: qHTS Assay for Lipid Storage Modulators in Drosophila S3 Cells
Conditions: BODIPY lipid droplet fluorescence, 18-24 h, cells fed with added oleic acid; lipid storage change, negative = inhibition: at 46.1 µM (top of the series) unless noted
In short: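 Drosophila S3 cells loaded with oleic acid (400 uM, as added) and compounds at several concentrations; lipid droplets imaged by 488-nm laser-scanning cytometry, 500–530 nm intensity and object ratio to cell channel. Percent activity normalized to 20 uM Triacsin C.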
In the case of `COc1ccc(C(=O)Nc2cnn(Cc3ccc(Cl)cc3)c2)cc1OC`, the lipid storage change, negative = inhibition is reported as inconclusive: -5.7%. For `COc1ccc(N2C(=O)CC2(/C=C/c2ccccc2OC)C(=O)NC2CCCC2)cc1` (stereo not given), the Potency was inconclusive: 25.9 µM [falling, single point]. With `Cc1nc2ccc(C(=O)Nc3ccc4nc[nH]c4c3)cc2[nH]1` the Potency was inconclusive: 0.0058 µM [activator, full curve]. In the case of `CCCCCN(C(=O)CCC(=O)OCC(=O)NCc1ccc(OC)cc1)c1c(N)n(CCCC)c(=O)[nH]c1=O`, the lipid storage change, negative = inhibition is reported as inconclusive: -1.55%. In the case of `C=CCn1c(SCC(=O)Nc2c(C)n(C)n(-c3ccccc3)c2=O)nc2ccccc2c1=O`, the lipid storage change, negative = inhibition is reported as inconclusive: 8.56%. With `CCN(CC(=O)Nc1ccccc1Br)C1CCCCC1` the lipid storage change, negative = inhibition was inconclusive: 3.62%. In the case of `Cc1nc(NC(=O)c2ccc([N+](=O)[O-])cc2Cl)sc1C(=O)N(C)C`, the Potency is reported as inconclusive: 1.46 µM [activator, partial curve]. For `Cc1ccc(CN2CCN(Cc3cc(=O)c4ccccc4[nH]3)CC2CCO)o1` (stereo not given), the lipid storage change, negative = inhibition was inconclusive: -5.19%. With `CCOC(=O)C(=CNc1ccccc1Cl)C(=O)OCC` the lipid storage change, negative = inhibition was inconclusive: 43.9%. In the case of `CC(C)c1ccc(NC(=O)CN2CCN(C(=O)C3CCCO3)CC2)cc1` (stereo not given), the Potency is reported as inconclusive: 4.61 µM [activator, full curve, poor fit]. With `CC(=O)c1cccc(NC(=O)C2COc3ccccc3O2)c1` (stereo not given) the lipid storage change, negative = inhibition was inconclusive: 48.6%. For `O=C(NC1CC1)c1ccc(Cl)c(S(=O)(=O)N2CCOCC2)c1`, the lipid storage change, negative = inhibition was inconclusive: -65.5%. With `COCCNC(=O)c1ccc(NC(=O)C2(c3ccccc3)CCCC2)cc1` the lipid storage change, negative = inhibition was inconclusive: 17.2% [at 9.22 µM]. With `Cc1ccc2cc(C3CC(c4ccco4)=NN3C(=O)CCC(=O)O)c(Cl)nc2c1` (stereo not given) the lipid storage change, negative = inhibition was inconclusive: 32.9%. For `C=C1C2(C(=O)NCc3ccco3)CCC(C2)C1(C)C` (stereo not given), the lipid storage change, negative = inhibition was inconclusive: -2.61%. For `O=C(O)c1cc(S(=O)(=O)Nc2cc(Cl)ccc2Oc2ccccc2)ccc1O`, the Potency was inconclusive: 0.651 µM [activator, partial curve, poor fit]. In the case of `CC(C)NS(=O)(=O)c1ccc(CCC(=O)NCc2cccnc2)cc1`, the lipid storage change, negative = inhibition is reported as inconclusive: 15%. In the case of `CCNS(=O)(=O)c1ccc(CCC(=O)NCc2ccccn2)cc1`, the Potency is reported as inconclusive: 29.1 µM [activator, single point]. For `O=c1[nH]c2ccccc2nc1N1CCOCC1`, the lipid storage change, negative = inhibition was inconclusive: 14.2%. In the case of `Cc1ccc(S(=O)(=O)Cc2ccc(C(=O)N3CCc4ccccc4C3)o2)cc1`, the lipid storage change, negative = inhibition is reported as inconclusive: -44.1%. For `COc1ccc(OC)c(C(=O)COC(=O)C(CCSC)NC(=O)COc2ccccc2)c1` (stereo not given), the “outcome” value was “inactive [at 46.1 µM]”. In the case of `COc1ccccc1N1CCN(C(=O)c2ccc3[nH]c(C)c(C)c3c2)CC1`, the Potency is reported as inconclusive: 29.1 µM [falling, single point]. In the case of `CC(C)(C)N(Cc1ccccc1)C(=O)c1cccs1`, the Potency is reported as inconclusive: 0.164 µM [falling, full curve, poor fit]. With `CCOc1ccc(CN(C)C(=O)NNC(=O)c2ccc(C)cc2)cc1OC` the lipid storage change, negative = inhibition was inconclusive: 150%. For `C(=N\c1nccs1)/c1c[nH]c2ccccc12`, the lipid storage change, negative = inhibition was inconclusive: 4.37%. For `O=S1(=O)CCC(SCc2nc3sccn3c2Br)C1` (stereo not given), the lipid storage change, negative = inhibition was inconclusive: 51.8%. With `CCCc1c(C(=O)N/N=C/c2ccccc2C(F)(F)F)nnn1-c1nonc1N` the Potency was inconclusive: 29.1 µM [falling, single point]. With `O=C(Nc1ccccc1C(=O)Nc1ccccn1)c1ccccc1F` the Potency was inconclusive: 23.1 µM [falling, partial curve, poor fit]. With `CC1CCCN(CCOCCOc2ccc(Br)cc2Cl)C1` (stereo not given) the Potency was inconclusive: 0.103 µM [activator, full curve, poor fit]. For `CCOC(=O)c1ccc([N+](=O)[O-])cc1NC(C)=O`, the lipid storage change, negative = inhibition was inconclusive: 17.1%. For `CC1CC(C)CN(CCC(=O)Nc2cccc(Cl)c2)C1` (stereo not given), the lipid storage change, negative = inhibition was inconclusive: -81.3%. For `Cc1ccc2nc(-c3ccccc3)cc(C(=O)Nc3cccnc3)c2c1`, the lipid storage change, negative = inhibition was inconclusive: 1.59%. In the case of `Cc1ccc(S(=O)(=O)NCCC(=O)Nc2cccc(S(N)(=O)=O)c2)cc1C`, the Potency is reported as inconclusive: 0.092 µM [falling, partial curve, poor fit]. In the case of `Nc1cc(C(=O)OCC(=O)c2ccc(CC(=O)N3CCOCC3)s2)ccc1Cl`, the lipid storage change, negative = inhibition is reported as inconclusive: 75.9%. In the case of `O=C(Cc1cc(=O)[nH][nH]1)N/N=C/c1cccc(Cl)c1Cl`, the lipid storage change, negative = inhibition is reported as inconclusive: -17.6%. With `COc1ccccc1-c1cc(C(=O)Nc2ccc(F)cc2F)no1` the lipid storage change, negative = inhibition was inconclusive: 10.8%. With `Cc1onc(-c2ccccc2)c1C(=O)N1CCCN(C(=O)c2c(-c3ccccc3)noc2C)CC1` the lipid storage change, negative = inhibition was inconclusive: 96.2%. In the case of `Cc1cc(C)cc(NCc2ccncc2)c1`, the lipid storage change, negative = inhibition is reported as inconclusive: 40.4%. In the case of `O=C(NCc1ccccc1Cl)C1CCN(c2cnccn2)CC1`, the lipid storage change, negative = inhibition is reported as inconclusive: -15%. In the case of `COc1ccc(/C(N)=N/OC(=O)CCc2ccccc2)cc1`, the lipid storage change, negative = inhibition is reported as inconclusive: 15.7%. With `C/C(=C\C(=O)C(F)(F)F)Nc1ccc(C)cc1` the lipid storage change, negative = inhibition was inconclusive: 1.45%. For `CCN(CC)c1ccc([C@H]2[C@@H]3CCCC[C@]3(O)CCN2CC(=O)NCc2ccco2)cc1`, the lipid storage change, negative = inhibition was inconclusive: 29.1%. For `Fc1cccc(C2NN=C(c3ccccc3)S2)c1` (stereo not given), the Potency was inconclusive: 0.184 µM [activator, full curve, poor fit]. In the case of `Cc1cc(C)nc(NC(=O)c2c(-c3c(Cl)cccc3Cl)noc2C)n1`, the Potency is reported as inconclusive: 8.2 µM [rising, partial curve]. For `CCOc1ccccc1N1CCN(C(=O)c2cccc(-c3ccc(O)cc3)c2)CC1`, the lipid storage change, negative = inhibition was inconclusive: -10.2%. In the case of `COCCNC(=S)NCc1ccc2[nH]c3c(c2c1)CCCC3`, the lipid storage change, negative = inhibition is reported as inconclusive: -28%. For `Cc1csc(NC(=O)CSc2ncnc3ccccc23)n1`, the “lipid storage change, negative = inhibition” value was inactive: 25.2%. With `Cc1ccc(SCCN2CCN(CCc3ccccc3)CCC2=O)cc1` the lipid storage change, negative = inhibition was inconclusive: 12.8%. In the case of `COc1cccc(NC(=O)C(c2ccccc2)N2CCCC2)c1` (stereo not given), the lipid storage change, negative = inhibition is reported as inconclusive: -17.1%. With `CN(C)C(=O)CNC(=O)C1CCCCC1` the lipid storage change, negative = inhibition was inconclusive: -10%. In the case of `COc1ccc(C(C(=O)NCCC(C)C)N(CCO)C(=O)c2snc(C(N)=O)c2N)cc1` (stereo not given), the “lipid storage change, negative = inhibition” value is reported as inactive: -5.21%. In the case of `CCC(=O)NCCc1nc2ccccc2n1Cc1ccc(C)cc1`, the lipid storage change, negative = inhibition is reported as inconclusive: 16.5%. With `Nc1c(-c2cccc(Cl)c2)cnn1-c1ccccc1` the Potency was inconclusive: 0.0058 µM [falling, full curve, poor fit]. For `COC(=O)CSc1nnc(C)n1-c1cccc(OC)c1`, the lipid storage change, negative = inhibition was inconclusive: 1.36%. In the case of `CC(C)N(Cc1nc(-c2ccc3c(c2)OCO3)no1)Cc1nccn1C`, the lipid storage change, negative = inhibition is reported as inconclusive: 11.3%. With `CCC(=O)N1CCc2cc(S(=O)(=O)CCC(=O)NCc3ccc(C)cc3)ccc21` the lipid storage change, negative = inhibition was inconclusive: 38.2%. In the case of `Cc1ccc(NC(=O)CN2C(=O)COc3ccc(S(=O)(=O)N4CCCC4)cc32)cc1C`, the Potency is reported as inconclusive: 0.651 µM [activator, partial curve, poor fit]. For `COc1ccc(C(=O)OC(C)C(=O)NC(C)CCc2ccccc2)cc1OC` (stereo not given), the lipid storage change, negative = inhibition was inconclusive: -36.5%. With `COc1ccc(S(=O)(=O)N(C)CC(=O)N2CCCC2)cc1OC` the lipid storage change, negative = inhibition was inconclusive: 31.6%. For `COc1ccc2c(c1)[C@H]1[C@H](CO2)[C@H](c2ccccc2)[C@]2(C)C(=O)Nc3cc(Cl)ccc3C(=O)N12`, the Potency was inconclusive: 16.4 µM [activator, partial curve]. In the case of `CCCCn1nc(C(=O)OCC(=O)Nc2sccc2C(N)=O)c2ccccc2c1=O`, the lipid storage change, negative = inhibition is reported as inconclusive: -18.9%. With `Cc1cc(-c2ccc(S(=O)(=O)N3CCN(c4cccc(C)c4C)CC3)s2)on1` the lipid storage change, negative = inhibition was inconclusive: 42.4%. With `O=C1CCN2C=Nc3cccc4ccc1c2c34` the lipid storage change, negative = inhibition was inconclusive: -38.6%. In the case of `Cc1cnc(NC(=O)c2ccc3ncsc3c2)s1`, the lipid storage change, negative = inhibition is reported as “inconclusive”. With `COc1ccc(CCNC(=O)CCN2C(=O)C(C)Oc3ccc(C)cc32)cc1OC` (stereo not given) the Potency was inconclusive: 6.51 µM [rising, partial curve, poor fit]. In the case of `CC(C)CNS(=O)(=O)c1ccc(CCC(=O)NCCc2ccccc2)cc1`, the Potency is reported as inconclusive: 0.651 µM [falling, full curve]. With `O=C(NC1CC1)c1ccc(-n2cccc2)cc1` the lipid storage change, negative = inhibition was inconclusive: -3.81%. In the case of `Cc1cccc(NC(=O)c2nc[nH]c2C(=O)NCCCCCCNC(=O)c2[nH]cnc2C(=O)Nc2cccc(C)c2)c1`, the Potency is reported as inconclusive: 0.092 µM [activator, full curve, poor fit]. In the case of `CCCc1cc(=O)oc2cc(C)cc(OCC(=O)NCCCN3CCCC3=O)c12`, the lipid storage change, negative = inhibition is reported as inconclusive: -36.9%. With `Cn1cnnc1SCC(=O)c1ccc2c(c1)NC(=O)CO2` the lipid storage change, negative = inhibition was inconclusive: -0.296%. With `O=C(CN1CCN(Cc2ccc(F)cc2Cl)C1=O)NCCc1ccccc1` the lipid storage change, negative = inhibition was inconclusive: -1.02%. In the case of `CCc1cccc(NC(=O)C2CCCN(S(=O)(=O)c3cccs3)C2)c1` (stereo not given), the Potency is reported as inconclusive: 6.51 µM [falling, single point]. With `CN(C)CCNC(=O)Nc1ccc(F)cc1F` the lipid storage change, negative = inhibition was inconclusive: -20.2%. In the case of `O=C(Cn1cccc1)NC1CCCCCC1`, the lipid storage change, negative = inhibition is reported as inconclusive: 4.62%. In the case of `CC(C)NCC(O)COCc1ccc(Cl)cc1` (stereo not given), the lipid storage change, negative = inhibition is reported as inconclusive: -6.95%. For `CN(Cc1ccc(N(C)C)cc1)C(=O)c1cc2ccccc2o1`, the lipid storage change, negative = inhibition was inconclusive: -46.2%. For `CC1(C)CN(c2cccc(C#N)c2)C1=O`, the lipid storage change, negative = inhibition was inconclusive: -66.3%. In the case of `CC(C)C(NC(=O)CN1C(=O)c2ccccc2C1=O)c1ccccc1` (stereo not given), the lipid storage change, negative = inhibition is reported as inconclusive: 22.7%. In the case of `COC(=O)CN1C(=O)C(C)=C(c2ccc(C)cc2)S1(=O)=O`, the Potency is reported as inconclusive: 18.4 µM [activator, single point]. In the case of `O=C1NC2(CCCCCCC2)C(=O)N1Cc1ccc(F)cc1`, the “lipid storage change, negative = inhibition” value is reported as inactive: -10.4%.
